Laboratory results published in patent US11529332B2 (priority 2017, dated 2022).

Test system: MYXV
Assay: MYXV-GFP infection rate in RK13 cells (high content microscopy)
Settings: selectivity index, ratio CC50 / IC50

O=[N+]([O-])c1ccc(F)c(-c2c3nc(c4ccc([nH]4)c(-c4cc([N+](=O)[O-])ccc4F)c4ccc([nH]4)c(-c4cc([N+](=O)[O-])ccc4F)c4ccc2[nH]4)C=C3)c1 [FNO2Cor, 5,10,15-Tris(2-fluoro-5-nitrophenyl)corrole]
SI (48 h PI): 2.81
SI (6 d PI): 7.52

Fc1c(F)c(F)c(-c2c3nc(c4ccc([nH]4)c(-c4c(F)c(F)c(F)c(F)c4F)c4ccc([nH]4)c(-c4c(F)c(F)c(F)c(F)c4F)c4ccc2[nH]4)C=C3)c(F)c1F [TPFCor, 5,10,15-Tris(pentafluorophenyl)corrole]
SI (48 h PI): 24.40
SI (6 d PI): 55.31

O=[N+]([O-])c1ccc(-c2c3nc(c4ccc([nH]4)c(-c4ccc([N+](=O)[O-])cc4)c4ccc([nH]4)c(-c4ccc([N+](=O)[O-])cc4)c4ccc2[nH]4)C=C3)cc1 [TpNO2Cor, 5,10,15-Tris(4-nitrophenyl)corrole]
SI (48 h PI): 10.25
SI (6 d PI): 21.45
